Patent US6440400B1, “Trimethylcylohexane derivatives and melanin-formation inhibitors and perfumeholding agents with the use of the same” (Takasago International Corporation, priority 1998, dated 2002)

Columns and labels:
[1] = Organoleptic evaluation of fragrance using scent papers; conditions: 7 trained panelists
[2] = Expression test of neat fragrance; conditions: 1:1 by weight with retainer, closed 30 minutes, vs fixative-free sample
[3] = Fixative test of neat fragrance; conditions: 1:1 by weight with retainer, open about 8 hours at room temperature, vs fixative-free sample

| SMILES | Quality of fragrances [1] | Fragrance expression test rating (total of scores of 10 panelists) ([2]; fragrance methylnonylketone) | Fragrance expression test rating (total of scores of 10 panelists) ([2]; fragrance n-decylaldehyde) | Fragrance fixative test rating (total of scores of 10 panelists) ([3]; fragrance ethyl octanoate) | Fragrance fixative test rating (total of scores of 10 panelists) ([3]; fragrance methylnonylketone) | Fragrance fixative test rating (total of scores of 10 panelists) ([3]; fragrance n-decylaldehyde) |
| --- | --- | --- | --- | --- | --- | --- |
| CCCCCCC(O)CCC1C(C)CCCC1(C)C (stereo not drawn) [1^4′j] | Almost odorless | – | – | – | – | – |
| CCCCCCCCCC(O)CCC1C(C)CCCC1(C)C (stereo not drawn) [1^4′o, 1-(2′,2′,6′-Trimethylcyclohexan-1′-yl)-dodecan-3-ol] | Odorless | – | – | – | – | – |
| O=C(OCc1ccccc1)c1ccccc1 [Benzyl benzoate, benzyl benzoate] | – | 7 | 8 | 13 | 16 | 7 |
| CCCCCC(O)CCC1C(C)CCCC1(C)C (stereo not drawn) [Compound 1^4′i, 1-(2′,2′,6′-Trimethylcyclohexan-1′-yl)-octan-3-ol] | Very weak, siight amber scent | – | – | – | – | – |
| CCCCCCCC(O)CCC1C(C)CCCC1(C)C (stereo not drawn) [Compound 1^4′m, 1-(2′,2′,6′-Trimethylcyclohexan-1′-yl)-decan-3-ol] | Odorless | – | – | – | – | – |
| CCCCCC(O)C=CC1C(C)CCCC1(C)C (stereo not drawn) [Compound 1″i, 1-(2′,2′,6′-trimethylcyclohexan-1′-yl)octan-1-en-3-ol] | Odorless | 13 | 12 | 16 | 20 | 15 |
| CC(C)CCCC(O)C=CC1C(C)CCCC1(C)C (stereo not drawn) [Compound 1″k, 1-(2′,2′,6′-Trimethylcyclohexan-1′-yl)-7-methyloctan-1-en-3-ol] | Odorless | – | – | – | – | – |
| CC(=O)CCC1=C(C)CCCC1(C)C [Dihydro-β-ionone, dihydro-β-ionone, reference compound] | Amber-nuanced woody floral scent | – | – | – | – | – |
| CC(O)CCC1C(C)CCCC1(C)C (stereo not drawn) [Tetrahydroionol, tetrahydroionol, reference compound] | Dry and woody scent | – | – | – | – | – |
| CCOC(=O)CC(O)(CC(=O)OCC)C(=O)OCC [Triethyl citrate, triethyl citrate] | – | 8 | 8 | 11 | 13 | 8 |
| CC(=O)/C=C/C1=C(C)CCCC1(C)C [β-Ionone, β-ionone, reference compound] | Sweet and potently woody floral | – | – | – | – | – |

Counter-ions that a name gives are not always drawn.
